From PubChem BioAssay AID493014 (National Center for Advancing Translational Sciences (NCATS), 2011)
The whole screen tested about 340,000 compounds, of which about 170 (0.05%) were called active. Inconclusive results, whose numbers are uncertain, are shown with a selection of clear calls. The call rests on the fitted dose curve; in most records, active means well fitted inhibition curve with a large enough effect in the signal ratio, with a control signal flat (not every such curve was filed as active); inconclusive means small, poorly fitted or top-dose-only effect, or effect the other way, or a change in a side signal; inactive means flat fitted curve, though single readings scatter; the % refers to the signal ratio. Potencies of inconclusive entries are doubtful fits and often do not repeat.

assay: qHTS Assay to Find Inhibitors of Chronic Active B-Cell Receptor Signaling; settings: ABC-DLBCL IkBa-CBG/CBR reporter, luminescence ratio (green luciferase fused to IkBa over red control in TMD8 lymphoma cells), 4 h; activity change, negative = inhibition: at 46.1 µM (top of the series) unless noted;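 on activity change, negative = inhibition: plate controls were basal doxycycline-induced cells for no effect and cells given 10 µM MG132 for full effect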
Summary of the method: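 Compounds up to 46 uM were incubated four hours with TMD8 cells whose green CBG68 luciferase is fused to IkappaBalpha; red CBR luminescence normalised the signal, and concentration-effect curves were fitted to fusion, red and ratio data.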
Potency means the concentration at half of the fitted maximal effect.

SMILES	activity change, negative = inhibition	Potency
O=C(/C=C/c1ccc(OCCCF)cc1)NCc1cccc(Cl)c1	inactive: -0.621%	
CCO/C(=C/c1sc2ccc(OC)cc2[n+]1CCCS(=O)(=O)[O-])CC	inactive: 2.25%	
CCOC(=O)c1ccc(CNCc2ccccc2)cc1	inactive: 7.18%	
COc1ccc(C(=O)/C=C/Nc2c(C)n(C)n(-c3ccccc3)c2=O)cc1OC	inconclusive: 0.377%	
CC(C)(C)N1C(=O)[C@H]2[C@@H](c3ccc(Br)cc3)N3C(=O)N(c4cccc(Br)c4)C(=O)[C@@]3(Cc3ccccc3)[C@H]2C1=O	inactive: 16.5%	
COc1ccc(-c2c(C)nn3c(N)c(C#N)cnc23)cc1OC		inconclusive: 8.91 µM [falling, partial curve]
CCOC(=O)CNc1nc(C#N)nc(N2CCOCC2)n1	inactive: -2.76%	
CC[n+]1ccc(/C=C/c2c[nH]c3ccccc23)cc1	inactive: 0.19%	
O=C(/C=C/c1ccccc1Br)c1ccc2c(c1)OCO2		inconclusive: 35.5 µM [falling, single point]
CC1(C)CC(C(CC(=O)O)c2ccccc2)CCO1 (stereo not drawn)	inactive: 1.68%	
O=C(COC(=O)CC1CC2CCC1C2)Nc1c(F)cccc1F (stereo not drawn)	inconclusive: -5.74%	
CN(C)S(=O)(=O)c1cccc(NC(=O)CN(CCO)CC(=O)Nc2cccc(S(=O)(=O)N(C)C)c2)c1	inconclusive: -3.14%	
CCc1ccc(C(=O)NC(CC(C)C)C(=O)O)cc1 (stereo not drawn)	inconclusive: 3.65%	
COc1ccc(Br)cc1CN1CCCCCCC1	inactive: 6.06%	
O=C(C1CCCCC1)N1CCCC(c2nc3c(nnn3Cc3ccccc3)c(=O)[nH]2)C1 (stereo not drawn)	inconclusive: -0.187%	
CCN(CC)c1ccc(/C=C2\C(=O)c3ccc(C(=O)O)cc3C2=O)cc1	inconclusive: -10.9%	
O=C(O)CCC(=O)Nc1cccc(-c2csc(-c3ccccc3)n2)c1		inconclusive: 25.1 µM [falling, partial curve, poor fit]
COc1ccc(C2C(C(N)=O)=C(C)Nc3nc(-c4cccc(Cl)c4)nn32)cc1OC (stereo not drawn)		inconclusive: 29.1 µM [falling, single point]
C=CCNC(=O)C(=O)NCCOc1ccccc1Cl	inactive: 4.95%	
CC(=O)OCC(=O)[C@@]1(O)CC[C@H]2[C@@H]3CCC4=CC(=O)C=C[C@]4(C)[C@@]3(F)[C@@H](O)C[C@@]21C	inconclusive: -23.5%	
O=C(O)c1ccc(NS(=O)(=O)c2ccc3c(c2)C(=O)c2ccccc2C3=O)cc1		inconclusive: 10 µM [falling, partial curve, poor fit]

SMILES	activity change, negative = inhibition	Potency
COc1ccc(OCC(=O)NC2CC(=O)N(c3ccc4c(c3)OCCO4)C2)cc1 (stereo not drawn)		inconclusive: 10 µM [falling, partial curve, poor fit]
CCCc1ccc2oc(C(=O)NCCc3cnn(C)c3)c(C)c2c1	inconclusive: 8.89%	
CCOC(=O)C1=C(CNCCOc2ccc(OC)cc2)NC(=O)NC1c1ccc2c(c1)OCO2 (stereo not drawn)	inactive: -10.6%	
CC1(C)CC(=O)C(C2C3=C(CC(C)(C)CC3=O)Oc3ccc4ccccc4c32)C(=O)C1 (stereo not drawn)	inactive: -0.534%	
COC(=O)c1cn(C(=O)c2ccc(OC)c(OC)c2)c2ccccc12	inconclusive: -8.24%	
Cc1cc(C(F)F)n2nc(C(=O)Nc3ccccc3F)nc2n1	inconclusive: 1.26%	
COCCCn1c(=O)c2ccccc2n(CC(=O)Nc2ccc3c(c2)OCCO3)c1=O	inactive: -22.1%	
Cc1nn(-c2ccccc2)c2sc(-c3n[nH]c(=S)o3)cc12	inconclusive: -16.1%	
Cc1ccccc1C(=O)N1CCN(c2ccc(NC(=O)c3ccc4c(c3)OCCO4)cc2)CC1	inconclusive: -2.23%	
COc1ccccc1CNS(=O)(=O)c1ccc(NC(C)=O)cc1	inconclusive: -19.7%	
Fc1ccc2c(c1)C(c1ccncc1)=NNC(c1ccccc1)=N2		inconclusive: 18.4 µM [falling, partial curve]
COc1ccccc1NNC(=O)C(O)(c1ccccc1OC)c1ccccc1OC	inconclusive: -9.89%	
COc1ccc(OC)c(N2CC(O)(c3cccs3)[N+]3=C2SCCC3)c1 (stereo not drawn)	inconclusive: -8.65%	
O=C(NC(Cc1c[nH]c2ccccc12)C(=O)N/N=C/c1ccc(Cl)cc1)c1cccs1 (stereo not drawn)	inconclusive: -18.5%	
Fc1ccc(NC(=S)NC2CCCCC2)c(F)c1F	inactive: 9.14%	
CC(=O)Nc1ccc(CN2CCc3c([nH]c4ccccc34)C2c2ccccn2)cc1 (stereo not drawn)	inconclusive: -17.7%	
C/C(=N\O)c1ccc(Cl)c(Cl)c1	inactive: -7.2%	
Cc1cc(=O)[nH]c(N/N=C/c2cc(C)n(CC(F)(F)F)c2C)n1	inconclusive: -2.24%	
CC(O)(CS(=O)(=O)Cc1ccc(Cl)cc1)C(=O)Nc1cccc(C(F)(F)F)c1 (stereo not drawn)	inconclusive: -4.2%	
ClCc1csc(N/N=C/c2cccs2)n1	inconclusive: 6.86%	
Nc1ncncc1-c1ccc2ccccc2c1	inconclusive: -12.8%	

SMILES	activity change, negative = inhibition	Potency
CC(C)c1ccc(NC2=NCC(=O)N2Cc2cccs2)cc1	inconclusive: 3.59%	
Cc1[nH]c2ccc(-c3n[nH]c(=S)n3-c3ccccc3)cc2c1C	inconclusive: 2.47%	
CC1CCN(c2ccccc2NC(=S)NC(=O)C(C)(C)C)CC1	inconclusive: 5.44%	
COc1ccc(Cl)cc1C(=O)OCC(=O)NCc1cccs1	inconclusive: -0.183%	
CCOC(=O)c1ccccc1NC(=O)CN(c1ccccc1)S(=O)(=O)N(C)C	inconclusive: 15.9%	
CCOC(=O)N1CCN(c2nnnn2-c2ccccc2)CC1	inconclusive: 7.46%	
O=C(CN1C(=O)CSC1=O)Nc1ccc(N2CCOCC2)cc1	inconclusive: -0.556%	
C/C(=N\NC(=O)c1ccc(F)cc1)c1ccc(N2CCOCC2)cc1		inconclusive: 17.8 µM [falling, partial curve]
Cn1ccnc1SCC(=O)NC1CCCCC1	inactive: 4%	
Cc1c(C(=O)Nc2ccc3c4c(cccc24)CC3)cccc1[N+](=O)[O-]	inactive: 1.79%	
Cc1cccc(-n2ncc3c(NCCCO)ncnc32)c1		inconclusive: 2.06 µM [rising, partial curve, poor fit]
CCCCOc1ccc(C(=O)NCC(=O)NCCCn2nc(C)cc2C)cc1	inconclusive: -0.0059%	
Cc1ccc(C(=O)Nc2ccc(C(=O)N/N=C/c3c[nH]c4ccccc34)cc2)cc1		inconclusive: 16.4 µM [falling, single point]
CCOc1cc(CNc2ccc(N3CCN(C(C)=O)CC3)cc2)cc(Br)c1OC	inconclusive: -9.56%	
Cn1c(CSc2nnc(SCc3ccccc3)s2)nc2ccccc21	inconclusive: 1.57%	
CC(C)c1ccc(N(C(=O)c2snc(C(N)=O)c2N)C(C(=O)NC2CCCC2)c2ccncc2)cc1 (stereo not drawn)	inconclusive: -24.9%	
Cc1ccc(C(=O)N2CCCC(N(C)Cc3ccccc3)C2)s1 (stereo not drawn)	inactive: 6.29%	
c1ccc(C2=Nn3c(Cn4nnc5ccccc54)nnc3SC2)cc1		inconclusive: 12.6 µM [falling, partial curve, poor fit]
COc1ccc(-c2c3c(=O)n(C)c(=O)n(C)c3cn2Cc2cccnc2)cc1	inconclusive: -0.416%	
CC(Sc1nc(NCc2ccccc2)nc(N2CCOCC2)n1)C(=O)Nc1ccccc1 (stereo not drawn)	inactive: -3.01%	
O=C1c2cccnc2C(Nc2cccc(F)c2)N1Cc1ccco1 (stereo not drawn)	inconclusive: 1.73%	

SMILES	activity change, negative = inhibition	Potency
Cc1ccc(CNC(=O)c2cc(-c3ccccc3C)nn2CC2CC(c3cccnc3)=NO2)cc1 (stereo not drawn)	inactive: -0.482%	
COc1cc(OC)cc(C(=O)c2c(C)c(C#N)c3ccccn23)c1	inconclusive: 2.09%	
COc1cc(/C=N/NC(=O)c2ccncc2)cc(OC)c1OC	inactive: -0.395%	
O=C(O)CC1(CC(=O)NCc2ccc(F)cc2)CCCCC1	inconclusive: 2.77%	
CCCn1nc(NS(=O)(=O)c2cccc3nonc23)c2cc3cccc(C)c3nc21	inactive: -3.99%	
COc1ccc(OC)c(S(=O)(=O)NCC2CCCO2)c1 (stereo not drawn)	inconclusive: -7.27%	
O=C(N/N=C\c1ccc([N+](=O)[O-])s1)c1cncc(Br)c1		inconclusive: 9.2 µM [falling, partial curve]
CC(C)(C)NC(=O)NC(=O)COC(=O)c1cccc(NS(=O)(=O)c2ccc(F)c(F)c2)c1	inconclusive: -6.79%	
COc1ccc(S(=O)(=O)Nc2ccc3c(c2)C(=O)N([C@H](C)CO)C[C@H](C)[C@@H](CN(C)S(=O)(=O)c2ccc(F)cc2)O3)cc1	inconclusive: 2.51%	
CC(=C/c1ccccc1)/C=N/Nc1nc(N2CCOCC2)nc(N2CCOCC2)n1	inactive: -0.685%	
NS(=O)(=O)c1cccc(NC(=O)c2ccc(S(=O)(=O)N3CCCCCC3)cc2)c1	inconclusive: -0.738%	
COc1ccc(CCNC(=O)CNC(=O)c2ccccc2Br)cc1OC	inconclusive: -0.1%	
O=C(COc1ccc([N+](=O)[O-])cc1)Nc1ccc2c(c1)CCC2	inconclusive: 2%	
CCOc1ccc(NS(=O)(=O)c2ccc(NC(=S)NC(=O)C(C)C)cc2)cc1	inconclusive: -15.7%	
COC(=O)c1cc(-c2ccc(S(=O)(=O)N3CCCC3)cc2)c(C(F)(F)F)s1	inconclusive: 3.82%	
Oc1c(CN2CCc3ccccc3C2)cc(Cl)c2cccnc12		inconclusive: 14.6 µM [falling, partial curve]
Cc1ccc(P(=O)(CSC(=N)N)c2ccc(C)cc2)cc1		inconclusive: 28.2 µM [falling, partial curve]
Clc1ccc(-n2nnc(-c3nccs3)n2)cc1Cl	inactive: 3.08%	
Cn1c(CN2CCCC2)nc2cc(NC(=O)C3CCCCC3)ccc21		inconclusive: 15.8 µM [falling, partial curve, poor fit]
CC1Cc2ccccc2N1C(=O)COc1nc2ccccc2nc1N1CCOCC1 (stereo not drawn)	inactive: 1.84%	

A draw from above in order of molar mass, largest number first:
SMILES	activity change, negative = inhibition	Potency
CCCn1nc(NS(=O)(=O)c2cccc3nonc23)c2cc3cccc(C)c3nc21	inactive: -3.99%	
O=C(N/N=C\c1ccc([N+](=O)[O-])s1)c1cncc(Br)c1		inconclusive: 9.2 µM [falling, partial curve]
Cn1c(CN2CCCC2)nc2cc(NC(=O)C3CCCCC3)ccc21		inconclusive: 15.8 µM [falling, partial curve, poor fit]
O=C(O)CC1(CC(=O)NCc2ccc(F)cc2)CCCCC1	inconclusive: 2.77%	
